These are yes or no findings as the source states them, for the method shown.
Target: T1, Glycine-Rich RNA-binding Protein 7 (GRP7), recombinant full-length (Arabidopsis thaliana), Q03250
T1 chain: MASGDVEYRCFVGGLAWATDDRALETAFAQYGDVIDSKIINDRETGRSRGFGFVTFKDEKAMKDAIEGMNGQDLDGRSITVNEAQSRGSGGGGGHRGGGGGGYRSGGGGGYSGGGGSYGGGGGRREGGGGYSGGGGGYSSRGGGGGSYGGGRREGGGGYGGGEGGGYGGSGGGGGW
Test: SEC
Conditions: remark: other sources report otherwise

B1: Glycine-Rich RNA-binding Protein 7 (GRP7), recombinant full-length, Q03250 1-176 (protein)
chain: T1 chain
  binding: no binding
